The record followed here is US20090060906A1.

The chains behind the UniProt entries cited, without tags or fusion partners. Residues count along the entry.
UniProt P35225, residues 35-146: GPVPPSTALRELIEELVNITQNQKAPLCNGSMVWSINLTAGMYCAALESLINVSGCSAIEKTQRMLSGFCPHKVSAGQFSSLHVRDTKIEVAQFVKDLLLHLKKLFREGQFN

These are yes or no findings as the source states them, for the method shown. Some entries that bind do so weakly or less than the wild type.

This experiment concerns the target IL-13 (UniProt P35225). As to the kind of experiment: IGEN plate binding assay, 96-well format.

B1: IMA-638 (antibody, human IgG1, kappa, V domains shown)
VH: EVQLVESGGGLVQPGGSLRLSCAASGFTFISYAMSWVRQAPGKGLEWVASISSGGNTYYPDSVKGRFTISRDNAKNSLYLQMNSLRAEDTAVYYCARLDGYYFGFAYWGQGTLVTVSS
VL: DIQMTQSPSSLSASVGDRVTITCKASESVDNYGKSLMHWYQQKPGKAPKLLIYRASNLESGVPSRFSGSGSGTDFTLTISSLQPEDFATYYCQQSNEDPWTFGGGTKVEIKR
In the case of B1, the binding entry is recorded as “binds”.
